The nature of the data set: Test 1: liquid-liquid extraction of carboxylic acids from fermentation medium with endogenous solvent. It counts as physicochemical. The following applies: 50 ml liquid phase of fermentation medium (household waste, 50 g/l DM), pH 4.3, solvent in 1/1 volume ratio.

On to `CCCCCCC(=O)O` [heptanoic acid, Heptanoic acid], for which the extraction yield turned out to be 37%. To `CCCCCCCC(=O)O` [octanoic acid, Octanoic acid] belongs “identical yield”.

These data come from patent US11149230B2, “Process for extracting carboxylic acids produced by anaerobic fermentation from fermentable biomass” (AFYREN, priority 2015, dated 2021).
